Experimental data taken from PubChem BioAssay (NCATS).
“And” between values parts separate entries of the source, which are not always exact repeats. Identical values can stand only once. These results got no clear call from the source, so the numbers are uncertain. Unless noted, the call rests on the fitted dose curve; in most records, active means well fitted curve in the direction sought with a large enough effect; inconclusive means small, poorly fitted or top-dose-only effect, or another doubt; inactive means no such curve, though single readings can be large; an effect the other way counts as inactive or inconclusive.

The chains behind the UniProt entries cited, without tags or fusion partners. Residues count along the entry.
UniProt P02791, 2-175 limits assumed: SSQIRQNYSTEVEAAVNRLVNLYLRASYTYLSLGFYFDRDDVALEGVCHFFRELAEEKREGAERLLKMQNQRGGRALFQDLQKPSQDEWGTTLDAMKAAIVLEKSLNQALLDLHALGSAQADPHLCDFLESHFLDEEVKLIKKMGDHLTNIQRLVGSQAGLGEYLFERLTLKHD
UniProt Q03181, whole entry: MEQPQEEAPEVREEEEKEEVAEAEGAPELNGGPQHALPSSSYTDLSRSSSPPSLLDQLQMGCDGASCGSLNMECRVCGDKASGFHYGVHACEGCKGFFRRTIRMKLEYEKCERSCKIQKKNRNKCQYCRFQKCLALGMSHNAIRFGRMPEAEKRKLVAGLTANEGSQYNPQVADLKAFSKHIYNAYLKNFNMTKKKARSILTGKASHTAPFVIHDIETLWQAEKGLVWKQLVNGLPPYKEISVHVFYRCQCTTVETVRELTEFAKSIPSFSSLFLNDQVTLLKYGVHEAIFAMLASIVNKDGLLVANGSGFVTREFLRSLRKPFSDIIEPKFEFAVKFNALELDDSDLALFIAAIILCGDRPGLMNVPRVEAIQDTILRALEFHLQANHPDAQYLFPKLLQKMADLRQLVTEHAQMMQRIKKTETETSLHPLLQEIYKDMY
UniProt P10828, whole entry: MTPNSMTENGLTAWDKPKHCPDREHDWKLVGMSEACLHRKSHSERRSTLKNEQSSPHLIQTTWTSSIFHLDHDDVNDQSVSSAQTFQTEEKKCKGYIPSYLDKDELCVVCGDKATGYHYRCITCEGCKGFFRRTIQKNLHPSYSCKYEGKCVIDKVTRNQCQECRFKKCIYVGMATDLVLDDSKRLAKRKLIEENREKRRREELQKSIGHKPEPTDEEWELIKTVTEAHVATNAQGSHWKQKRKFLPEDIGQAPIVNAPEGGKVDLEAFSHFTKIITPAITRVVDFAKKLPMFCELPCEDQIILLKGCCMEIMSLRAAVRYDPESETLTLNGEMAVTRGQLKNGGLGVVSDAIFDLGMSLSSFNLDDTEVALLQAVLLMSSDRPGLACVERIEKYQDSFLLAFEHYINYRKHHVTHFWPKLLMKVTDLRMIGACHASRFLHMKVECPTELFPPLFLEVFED
UniProt P08482, whole entry: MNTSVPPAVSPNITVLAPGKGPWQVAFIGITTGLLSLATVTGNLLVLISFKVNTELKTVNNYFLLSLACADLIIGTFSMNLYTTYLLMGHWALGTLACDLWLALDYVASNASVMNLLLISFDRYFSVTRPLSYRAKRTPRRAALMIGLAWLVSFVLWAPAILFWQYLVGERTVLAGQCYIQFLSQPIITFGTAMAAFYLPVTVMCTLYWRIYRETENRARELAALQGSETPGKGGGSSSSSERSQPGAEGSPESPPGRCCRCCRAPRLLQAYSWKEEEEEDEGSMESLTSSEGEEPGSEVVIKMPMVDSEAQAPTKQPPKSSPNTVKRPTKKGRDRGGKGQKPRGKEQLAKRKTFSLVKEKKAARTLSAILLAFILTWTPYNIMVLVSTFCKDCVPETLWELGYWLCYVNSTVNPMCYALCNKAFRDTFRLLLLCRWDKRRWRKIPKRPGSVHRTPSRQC

Tests used:
[1] = Cell Viability - N2a (AID 540); conditions: N2a mouse neuroblastoma cell viability; at 92.2 µM (top of the series);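 further: cells exposed to compound for 40 h at 37 °C; plate controls were DMSO alone for no effect and tamoxifen control for full effect; nearly all actives have a fitted effect of over 45% in size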
In short: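 In this qHTS cytotoxicity screen, ATP-dependent luciferase luminescence reports viable N2a cells after a 40 hr compound exposure in complete culture medium. Potencies are AC50 values from standard Hill equation fits.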

[2] = Cell Viability - H-4-II-E (AID 543); conditions: H-4-II-E rat hepatoma viability;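 further: potency means the concentration at half of the fitted maximal effect; cells exposed to compound for 40 hours; nearly all actives have a fitted effect of over 35% in size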
In short: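 AC50 from Hill-modelled qHTS concentration-response curves. H-4-II-E rat hepatoma cells in complete medium, 40 hr exposure at 37 °C, viability by CellTiter-Glo ATP luminescence.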

[3] = MultiTox-Fluor Cytotoxicity Assay - LYMP1-001 - Live Cells (AID 947); conditions: LYMP1-001 lymphoblastoid cells, live-cell protease fluorescence viability; further: potency means the concentration at half of the fitted maximal effect
[4] = Cell Viability - LYMP1-003 - Assay at 40 hr (AID 964); conditions: LYMP1-003 lymphoblastoid viability; further: potency means the concentration at half of the fitted maximal effect; nearly all actives have a fitted effect of over 60% in size
In short: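 Acute toxicity is scored as a concentration-dependent loss of intracellular ATP in LYMP1-003 cells (2500/well, complete medium) after 40 hr at 37 C, measured by CellTiter-Glo luminescence; AC50 values derive from standard Hill modelling.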

[5] = Cell Viability - LYMP2-021 (AID 974); conditions: LYMP2-021 lymphoblastoid cells viability;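 further: potency means the concentration at half of the fitted maximal effect; compound exposure lasts 24 hours at 37 °C; nearly all actives have a fitted effect of over 55% in size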
In short: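 In qHTS format, compounds are tested against 2500 lymphoblastoid cells per well for 24 h; viable cell number is inferred from ATP-driven luciferase light, and Hill-equation fitting yields AC50 values.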

[6] = Cell Viability - LYMP2-007 (AID 979); conditions: LYMP2-007 lymphoblastoid cell viability;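 further: potency means the concentration at half of the fitted maximal effect; cells exposed to compound for 24 h before reading; nearly all actives have a fitted effect of over 60% in size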
In short: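 Measured via luciferase-based ATP quantitation: lymphoblastoid cells, 24 hr compound exposure at 37 C, AC50 from Hill fits.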

[7] = Cell Viability - LYMP2-010 (AID 981); conditions: LYMP2-010 lymphoblastoid cell viability, qHTS;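 further: potency means the concentration at half of the fitted maximal effect; cells exposed to compound for 24 hours at 37 °C; nearly all actives have a fitted effect of over 55% in size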
In short: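 This 24 hr viability screen uses LYMP2-010 lymphoblastoid cells, quantifies ATP via luciferase luminescence, and derives AC50 from Hill fits of qHTS concentration-response data.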

[8] = target: Estrogen receptor (Homo sapiens) (UniProt P03372); assay: qHTS assay for small molecule antagonists of estrogen receptor alpha signaling (AID 588513; active means well fitted curve in the direction sought with a large enough effect in the signal ratio, with a control signal flat, not every such curve was filed as active; inconclusive means small, poorly fitted or top-dose-only effect, or effect the other way, or a change in a side signal; inactive means no such curve, though single readings can be large or run the other way; the % refers to the signal ratio; further: on the % scale 0 is the no-effect control and ±100 the full control effect); conditions: ER-alpha-UAS-bla HEK293, beta-lactamase ratio, antagonist mode; at 76.9 µM (top of the series)
[9] = target: Glucocorticoid receptor (Homo sapiens) (UniProt P04150); assay: qHTS assay for small molecule agonists of glucocorticoid receptor signaling (AID 588532; active means well fitted curve in the direction sought with a large enough effect in the signal ratio, with a control signal flat; inconclusive means small, poorly fitted or top-dose-only effect, or a change in a side signal; inactive means no such curve, though single readings can be large or run the other way; the % refers to the signal ratio; further: potency means the concentration at half of the fitted maximal effect); conditions: HeLa MMTV-bla, beta-lactamase ratio, agonist, 18 h
[10] = target: Peroxisome proliferator-activated receptor gamma (Homo sapiens) (UniProt P37231); assay: qHTS assay for small molecule agonists of peroxisome proliferator-activated receptor gamma signaling (AID 588536; active means well fitted curve in the direction sought with a large enough effect in the signal ratio, with a control signal flat, not every such curve was filed as active; inconclusive means small, poorly fitted or top-dose-only effect, or effect the other way, or a change in a side signal; inactive means no such curve, though single readings can be large or run the other way; the % refers to the signal ratio; further: potency means the concentration at half of the fitted maximal effect;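 on activation: 0% = DMSO basal wells and 100% = rosiglitazone at 2 µM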); conditions: HEK293 PPARg-UAS-bla, beta-lactamase ratio, 16 h; activation: at 76.7 µM (top of the series), percent of rosiglitazone response, DMSO as zero
In short: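 Beta-lactamase reporter read-out: CCF4 fluorescence (ex 405, em 460/530 nm) after 2 h at RT. HEK293 GeneBLAzer cells were treated for 16 h at 37 C. Hill fits gave EC50 and efficacy versus 2 uM rosiglitazone (100%) and DMSO (0%).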

[11] = target: Vitamin D3 receptor (Homo sapiens) (UniProt P11473); assay: qHTS assay for small molecule antagonists of vitamin D receptor signaling (AID 588541; calls by dose curve;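 further: receptor activated by calcitriol during compound treatment; on the % scale 0 is the no-effect control and ±100 the full control effect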); conditions: HEK293T VDR-UAS-bla, beta-lactamase ratio, antagonist mode; at 76.7 µM (top of the series)
In short: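 VDR-UAS-bla HEK293T cells (2000/well, 2% charcoal-stripped FBS) were treated with titrated compounds plus 1-alpha,25-dihydroxyvitamin D3 (50 nM or 3 nM final) for 16 h at 37 C. CCF4 beta-lactamase fluorescence was read; Hill fits gave IC50.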

[12] = qHTS assay for small molecule disruptors of the mitochondrial membrane potential - 1 hr assay (AID 651754; calls by dose curve; further: potency means the concentration at half of the fitted maximal effect; nearly all actives have a fitted effect of over 35% in size); conditions: HepG2 mitochondrial membrane potential, JC-1 ratio 590/535, 1 h
In short: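 In this qHTS format, a 1 hr compound treatment of HepG2 cells precedes Mito-MPS staining, and membrane potential is judged from aggregate (red) against monomer (green) fluorescence intensity.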

[13] = qHTS assay to identify small molecules that stimulate interleukin-8 (IL-8) secretion (AID 651758; active means well fitted activation curve with a large enough effect in the signal ratio; inconclusive means small, poorly fitted or top-dose-only effect, or effect the other way, or a change in a side signal; the % refers to the signal ratio; further: potency means the concentration at half of the fitted maximal effect; on activation: 0% is about no effect); conditions: HTRF ratio (665/615); activation: at 92.2 µM (top of the series)
In short: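 Quantitative HTS in THP-1 monocytic cells at 2000 cells per well, with 16 hrs compound incubation at 37 C. IL-8 in the medium was then quantified by HTRF immunoassay, read after 1-3 hrs at room temperature.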

[14] = qHTS assay for small molecule agonists of the antioxidant response element (ARE) signaling pathway measured by Nrf2-dependant transcriptional activity (AID 720636; active means well fitted curve in the direction sought with a large enough effect in the repeat runs; inconclusive means weak or mixed curves; inactive means no such curve, though single readings can be large; an effect the other way counts as inactive or inconclusive; further: potency means the concentration at half of the fitted maximal effect); conditions: ARE-luc HepG2, Nrf2 luciferase reporter, 16 h
In short: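 Reporter gene assay, HepG2 ARE-luc: 16 hr compound, 37 C, 5% CO2; read-out luciferase luminescence.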

[15] = NFAT Signaling Pathway (AID 444; active means well fitted curve in either direction with a large enough effect, not every such curve was filed as active; inconclusive means small, poorly fitted or top-dose-only effect, or another doubt;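 further: carbachol stimulus at about its EC50 of 1 µM final; on the % scale 0 is the no-effect control and ±100 the full control effect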); conditions: Jurkat NFAT-bla M1, carbachol, beta-lactamase ratio, 5 h; at 38 µM (top of the series) unless noted
In short: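 Jurkat cells carrying an NFAT-driven β-lactamase reporter and co-transfected muscarinic M1 receptor were treated with compound plus carbachol (1 uM final, an EC50 level) for 5 h at 37 °C. CCF4 loading followed for 1 h at RT; 460/530 nm ratio gave %activity.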

[16] = qHTS Assay for Identification of Small Molecule Antagonists for NFkB Signaling Pathway (AID 895; active means well fitted inhibition curve with a large enough effect in the signal ratio, with a control signal flat, not every such curve was filed as active; inconclusive means small, poorly fitted or top-dose-only effect, or effect the other way, or a change in a side signal; the % refers to the signal ratio; further: potency means the concentration at half of the fitted maximal effect; on activity change, negative = inhibition: on the % scale 0 is the no-effect control and ±100 the full control effect); conditions: NFkB beta-lactamase reporter cells, FRET ratio 460/530, stimulated with 10 pM TNF alpha; activity change, negative = inhibition: at 38.3 µM (top of the series)
[17] = qHTS Assay for Modulators of Human Peripheral Myelin Protein 22 (PMP22) Expression/Activity (AID 1967; active means well fitted curve in the direction sought with a large enough effect in the signal ratio; inconclusive means small, poorly fitted or top-dose-only effect, or effect the other way, or a change in a side signal; inactive means no such curve, though single readings can be large or run the other way; the % refers to the signal ratio; further: potency means the concentration at half of the fitted maximal effect); conditions: Cell-based PMP22 reporter, dual-color luciferase ratio; mouse Pmp22 promoter in mouse Schwann cells
In short: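 MSC80 mouse Schwann cells stably carrying Pmp22 promoter–green click beetle luciferase plus EF-alpha–red luciferase control were dosed for 24h at 37 °C. Dual-colour luminescence was filter-overlap corrected; %Activity came from green/red ratio versus untreated cells.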

[18] = target: Ferritin light chain (Equus caballus) (UniProt P02791); assay: qHTS Validation Assay for Identification of Novel General Anesthetics (AID 2323); conditions: horse apoferritin, anesthetic-site fluorescent probe displacement; further: potency means the concentration at half of the fitted maximal effect
In short: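 Competitive displacement of profluorescent 1-aminoanthracene (1-AMA, 50% saturated solution in PBS) from 10 uM horse-spleen apoferritin. Compounds incubated 10 min at room temperature; fluorescence read at 380 nm excitation/535 nm emission, normalized to free 1-AMA and complex, fitted with four-parameter Hill equation.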

[19] = qHTS Assay for Identification of Small Molecule Agonists for Hypoxia Response Element Signaling Pathway (AID 914; active means well fitted activation curve with a large enough effect in the signal ratio, with a control signal flat, not every such curve was filed as active; inconclusive means small, poorly fitted or top-dose-only effect, or effect the other way, or a change in a side signal; the % refers to the signal ratio; further: potency means the concentration at half of the fitted maximal effect); conditions: ME-180 (cervical carcinoma) HRE-bla reporter, beta-lactamase ratio, CoCl2, 17 h; activation: hits give high values
[20] = Cell Viability - NIH 3T3 (AID 541); conditions: NIH 3T3 cell viability, qHTS; at 92.2 µM (top of the series);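 further: cells exposed to compound for 40 hours; plate controls were DMSO alone for no effect and tamoxifen positive control for full effect; nearly all actives have a fitted effect of over 25% in size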
In short: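 In this cytotoxicity screen, acute toxicity is scored as an ATP drop measured by CellTiter-Glo in NIH 3T3 fibroblasts following a 40 hr, 37 °C incubation with compound.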

[21] = Cell Viability - Renal Proximal Tubule (AID 545); conditions: renal proximal tubule cells viability, primary cells of rat origin; at 91.7 µM (top of the series);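 further: cells exposed to compound for 40 hours; 0% = DMSO only and -100% = 100 µM tamoxifen; nearly all actives have a fitted effect of over 40% in size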
In short: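 Primary rat renal proximal tubule cells (1000/well) were treated with compounds for 40 hr at 37 °C in complete medium. Intracellular ATP was measured by CellTiter-Glo luminescence, and AC50 values came from Hill-equation fits of concentration-response data.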

[22] = Cell Viability - Mesenchymal (AID 546); conditions: mesenchymal cells viability, qHTS; at 91.7 µM (top of the series);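 further: cells exposed to compound for 40 hours before reading; 0% = DMSO only and -100% = 100 µM tamoxifen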
In short: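 In this qHTS cytotoxicity format, glomerulus-derived human mesenchymal kidney cells received compound for 40 hr, then luciferase-based ATP quantitation. Concentration-response data were fitted with the Hill equation.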

[23] = Cellular Toxicity (caspase-3) SHSY5Y (AID 657); conditions: SH-SY5Y caspase-3 activation;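 further: potency means the concentration at half of the fitted maximal effect; cells exposed to compound for 16 hours at 37 °C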
In short: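 SH-SY5Y human neuroblastoma cells (1500/well) were treated with compounds for 16 h at 37 °C, then Caspase-Glo 3/7 luminescence was read after 1 h at room temperature. Data normalized to DMSO and 10 uM staurosporine; AC50 from Hill fits.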

[24] = Cellular Toxicity (caspase-3) SK-N-SH (AID 661); conditions: SK-N-SH caspase-3 activation, qHTS, DMSO as zero, staurosporine as full; at 91.7 µM (top of the series);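 further: cells exposed to compound for 16 hours; 0% = DMSO basal and 100% = 10 µM staurosporine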
In short: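 Apoptosis readout in SK-N-SH neuroblastoma: Caspase-Glo 3/7 luminescence following 16 hr treatment in complete culture medium. Normalization used DMSO and 10 uM staurosporine controls.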

[25] = MultiTox-Fluor Cytotoxicity Assay - LYMP1-002 - Live Cells (AID 955); conditions: LYMP1-002 lymphoblastoid live-cell protease fluorescence viability;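 further: potency means the concentration at half of the fitted maximal effect; cells exposed to compound for 16 hours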
In short: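 In this qHTS viability format, lymphoblastoid cells (LYMP1-002, human) received compound for 16 hr at 37 C. Fluorogenic GF-AFC cleavage by viable cells was detected at 405/510 nm after 1 h at room temperature.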

[26] = target: Peroxisome proliferator-activated receptor delta (Homo sapiens) (UniProt Q03181); assay: qHTS assay for small molecule agonists of peroxisome proliferator-activated receptor delta signaling (AID 588534; calls by dose curve; further: potency means the concentration at half of the fitted maximal effect); conditions: HEK293T PPARdelta-UAS-bla, beta-lactamase ratio, 18 h
[27] = target: Peroxisome proliferator-activated receptor delta (Homo sapiens) (UniProt Q03181); assay: qHTS assay for small molecule antagonists of peroxisome proliferator-activated receptor delta signaling (AID 588535; active means well fitted inhibition curve with a large enough effect in the signal ratio, with a control signal flat, not every such curve was filed as active; inconclusive means small, poorly fitted or top-dose-only effect, or effect the other way, or a change in a side signal; inactive means no such curve, though single readings can be large or run the other way; the % refers to the signal ratio); conditions: HEK293T PPARd-UAS-bla, beta-lactamase FRET ratio, 18 h; activity change, negative = inhibition: at 76.7 µM (top of the series)
[28] = qHTS assay for small molecule agonists of the antioxidant response element (ARE) signaling pathway (AID 651741; active means well fitted activation curve with a large enough effect in the signal ratio; inconclusive means small, poorly fitted or top-dose-only effect, or effect the other way, or a change in a side signal; the % refers to the signal ratio; further: potency means the concentration at half of the fitted maximal effect); conditions: HepG2 ARE-bla reporter, beta-lactamase FRET ratio, 16 h; activation: at 96 µM (top of the series)
In short: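 Beta-lactamase reporter expression driven by the antioxidant response element in HepG2 cells was detected by fluorescence with LiveBLAzer B/G FRET substrate (2 h, room temperature) following 16 h compound treatment at 37 C.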

[29] = qHTS assay for small molecule antagonists of the retinoid-related orphan receptor gamma (ROR-gamma) signaling pathway - cell viability counter screen (AID 720652; active means well fitted curve in the direction sought with a large enough effect in the repeat runs; inconclusive means weak or mixed curves; inactive means no such curve, though single readings can be large; an effect the other way counts as inactive or inconclusive;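 further: potency means the concentration at half of the fitted maximal effect; compound exposure lasted 16 hr before ATP read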); conditions: RORgamma reporter cell line viability counter screen
[30] = target: Peroxisome proliferator-activated receptor gamma (Homo sapiens) (UniProt P37231); assay: qHTS assay for small molecule antagonists of peroxisome proliferator-activated receptor gamma signaling (AID 588537; active means well fitted inhibition curve with a large enough effect in the signal ratio, with a control signal flat, not every such curve was filed as active; inconclusive means small, poorly fitted or top-dose-only effect, or effect the other way, or a change in a side signal; the % refers to the signal ratio;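 further: reporter cells co-stimulated with 50 nM rosiglitazone agonist during compound treatment; % of control where 0% means no effect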); conditions: HEK293 PPARg-UAS-bla, beta-lactamase ratio, antagonist mode; activity, negative = inhibition: at 76.8 µM (top of the series)
In short: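 HEK293 cells, PPAR-gamma-UAS-bla, 3000/well. Pre-incubation 6-6.5 h, 37 C. Compound titration with rosiglitazone 50 nM final, 16 h. CCF4 dye, 2 h RT, dual-emission fluorescence.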

[31] = target: Thyroid hormone receptor beta (Homo sapiens) (UniProt P10828); assay: qHTS assay for small molecule antagonists of thyroid hormone receptor beta signaling (AID 588547; active means well fitted inhibition curve with a large enough effect in the signal ratio, with a control signal flat, not every such curve was filed as active; inconclusive means small, poorly fitted or top-dose-only effect, or effect the other way, or a change in a side signal; the % refers to the signal ratio); conditions: TR-UAS-bla HEK293, beta-lactamase ratio, antagonist mode, 18 h; inhibition: hits give low values
In short: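 TR-UAS-bla GripTite HEK293 cells in 2% charcoal/dextran FBS medium were preincubated 4 h at 37 C, given compound (0.59 nM to 92 uM) plus 0.4 nM T3 (final) for 18 h, then CCF4 for 2 h at RT; Hill fit gave IC50.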

[32] = target: Muscarinic acetylcholine receptor M1 (Rattus norvegicus) (UniProt P08482); assay: qHTS Assay for Antagonists of Acetylcholine Muscarinic M1 Receptor: Kinetic Measurement of Intracellular Calcium Response (AID 943); conditions: M1-expressing cells, kinetic intracellular calcium fluorescence; further: potency means the concentration at half of the fitted maximal effect; nearly all actives have a fitted effect of over 75% in size
[33] = target: Muscarinic acetylcholine receptor M1 (Rattus norvegicus) (UniProt P08482); assay: qHTS Assay for Antagonists of Acetylcholine Muscarinic M1 Receptor: Measurement of IP-One Response (AID 944); conditions: CHO-M1 cells, IP-One HTRF, antagonist mode; further: potency means the concentration at half of the fitted maximal effect; nearly all actives have a fitted effect of over 75% in size

Cc1ccc([N+](=O)[O-])c([N+](=O)[O-])c1
inconclusive: activity change, negative = cytotoxicity [1] -58.7% | Potency [2] 63.1 µM | Potency [3] 0.794 µM | Potency [4] 12.6 µM | Potency [5] 79.4 µM | Potency [6] 50.1 µM | Potency [7] 39.8 µM | activity, negative = inhibition [8] 0.446% | Potency [9] 28.2 µM | Potency [10] 50.1 µM | activity change, negative = inhibition [11] -83.6% | Potency [12] 53.1 µM | activation [13] 14.2% | Potency [14] 29.8 µM and 48.6 µM

CN(C(=O)Cc1ccc(Cl)c(Cl)c1)[C@@H]1CCCC[C@H]1N1CCCC1
inconclusive: activity change, negative = inhibition [15] -72.9% | Potency [16] 10 µM and 3.5 nM | activity change, negative = inhibition [16] -0.647% and -29% | Potency [17] 60.1 µM | Potency [18] 22.4 µM

O=C(CC(=O)c1ccccc1)O[C@H]1CN2CCC1CC2
inconclusive: activity change, negative = inhibition [15] -75.5% [at 7.69 µM]

CCN(CCO)CCO.Oc1c(Cl)c(Cl)c(Cl)c(Cl)c1Cl
inconclusive: Potency [19] 3.16 µM

CN(N=O)C(=N)N[N+](=O)[O-]
inconclusive: activity change, negative = cytotoxicity [20] -31.5% | activity change, negative = cytotoxicity [21] -52.3% | activity change, negative = cytotoxicity [22] -34.5% | Potency [23] 15.8 µM | caspase-3 activation [24] 13.3% | Potency [25] 25.1 µM | Potency [26] 39.8 µM | activity change, negative = inhibition [27] -2.01% | Potency [28] 66.8 µM | Potency [13] 66.8 µM | Potency [29] 66.8 µM

Cc1ccc([N+](=O)[O-])cc1[N+](=O)[O-]
inconclusive: activation [10] 11.1% | activity, negative = inhibition [30] 7.63% and -2.48% | inhibition [31] -16.2% | Potency [28] 42.2 µM | outcome [13]

CN(C(=O)Cc1ccc(Cl)c(Cl)c1)[C@@H]1CC[C@@]2(CCCO2)C[C@H]1N1CCCC1
inconclusive: Potency [32] 22.4 µM | Potency [33] 20 µM
